Data published in paper PMC10539439 (Pharmacological Reports, 2023).
Several values for one entry are separate records, joined by “and”; a condition that tells them apart may be missing. Equal values may be shown once. The source gives many values for each of these; only a part stands here.

Experiment: Spontaneous activity in the home cage (RFID, TraffiCage)
Assay type: in vivo, rat
Details: hight-fat diet, 5mg/kg
Procedure: Rat spontaneous activity was monitored for 24 h on the 1st and 24th (after multiple administrations of tested compound or vehicle) day of treatment with a radio-frequency identification system (RFID system)—TraffiCage (TSE-Systems, Germany)—transponder-based activity monitoring under group housing. The animals had subcutaneously implanted transponder identification with RFID code, which allowed the presence and time spent in different areas of the home cage to be recorded. The data were collected with a dedicated platform, placed under the home cage, containing five RFID antennas (six cage areas) reading telemetrically the presence of RFID chips and stored for analysis with a dedicated computer program. The animals during the monitoring of spontaneous activity were in home cages and always had free access to food and water.

Which activity (after 24th administration, hour 1, individual rats) does the source give for Cl.N=C(N)NN=Cc1c(Cl)cc(O)cc1Cl [4-OH-Guanabenz, 2-[(2,6-Dichloro-4-hydroxyphenyl)methylene]hydrazinecarboximidamide Hydrochloride] here?
The activity was 821 counts and 278 counts and 276 counts and 359 counts.

And the activity (after 24th administration, hour 2, individual rats)?
Its activity is 251 counts and 189 counts and 399 counts and 110 counts.

What about the activity (after 24th administration, hour 3, individual rats) of the same compound?
Its activity is 24 counts and 79 counts and 303 counts and 220 counts.

What about the activity (after 24th administration, hour 4, individual rats) of the same compound?
Its activity is 8 counts and 57 counts and 92 counts and 647 counts.

What about the activity (after 24th administration, hour 5, individual rats) of the same compound?
The activity was 469 counts and 40 counts and 681 counts and 229 counts.

What about the activity (after 24th administration, hour 6, individual rats) of the same compound?
Its activity is 213 counts and 149 counts and 447 counts and 529 counts.

What about the activity (after 24th administration, hour 7, individual rats) of the same compound?
The activity was 926 counts and 492 counts and 144 counts and 361 counts.

And the activity (after 24th administration, hour 8, individual rats)?
The activity was 494 counts and 703 counts and 331 counts and 754 counts.

What about the activity (after 24th administration, hour 9, individual rats) of the same compound?
Its activity is 339 counts and 426 counts and 593 counts and 224 counts.

What about the activity (after 24th administration, hour 10, individual rats) of the same compound?
Its activity is 850 counts and 411 counts and 587 counts and 574 counts.

What about the activity (after 24th administration, hour 11, individual rats) of the same compound?
Its activity is 603 counts and 621 counts and 889 counts and 501 counts.

What about the activity (after 24th administration, hour 12, individual rats) of the same compound?
Its activity is 516 counts and 409 counts and 694 counts and 800 counts.

What about the activity (after 24th administration, hour 13, individual rats) of the same compound?
The activity was 208 counts and 1130 counts and 505 counts and 315 counts.

What about the activity (after 24th administration, hour 14, individual rats) of the same compound?
The activity was 463 counts and 688 counts and 286 counts and 914 counts.

And the activity (after 24th administration, hour 15, individual rats)?
Its activity is 694 counts and 250 counts and 88 counts and 1257 counts.

And the activity (after 24th administration, hour 16, individual rats)?
The activity was 677 counts and 514 counts and 374 counts and 206 counts.

And the activity (after 24th administration, hour 17, individual rats)?
The activity was 412 counts and 548 counts and 667 counts and 707 counts.

And the activity (after 24th administration, hour 18, individual rats)?
The activity was 184 counts and 332 counts and 717 counts and 638 counts.

What about the activity (after 24th administration, hour 19, individual rats) of the same compound?
Its activity is 136 counts and 114 counts and 250 counts and 631 counts.

What about the activity (after 24th administration, hour 20, individual rats) of the same compound?
The activity was 59 counts and 137 counts and 165 counts and 350 counts.

And the activity (after 24th administration, hour 21, individual rats)?
The activity was 258 counts and 101 counts and 417 counts and 37 counts.

And the activity (after 24th administration, hour 22, individual rats)?
The activity was 85 counts and 269 counts and 650 counts and 104 counts.

And the activity (after 24th administration, hour 23, individual rats)?
Its activity is 231 counts and 10 counts and 295 counts and 545 counts.

What about the activity (after 24th administration, hour 24, individual rats) of the same compound?
Its activity is 223 counts and 29 counts and 56 counts and 102 counts.

And the activity (after first administration, hour 1, individual rats)?
The activity was 354 counts and 430 counts and 376 counts and 259 counts and 96 counts.

What about the activity (after first administration, hour 22, individual rats) of the same compound?
The activity was 643 counts and 348 counts and 364 counts and 130 counts and 423 counts.

What about the activity (after first administration, hour 23, individual rats) of the same compound?
The activity was 386 counts and 487 counts and 293 counts and 723 counts and 7* counts.

What about the activity (after first administration, hour 24, individual rats) of the same compound?
Its activity is 347 counts and 65 counts and 276 counts and 197 counts and 96 counts.
